Data as given in PubChem BioAssay AID652272 (Drosophila RNAi Screening Center, 2013)

- Screen: 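Genome-wide knock-down search for components of Hedgehog signalling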 (primary screen)
- Cell system: Drosophila clone 8 (Cl8) cells
- Reagent: long dsRNA against Drosophila genes
- Detection: 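Firefly light from a Hedgehog-responsive ptc promoter reporter and Renilla reference light, both read on a plate reader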
- Scale: firefly Hh reporter signal: higher = more ptc reporter light; Renilla reference signal: higher = more Renilla control light
- Call rule: 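Hit when the z-score averaged over two replicates is under -2 or over +3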
- Meaning of the calls: active = hit: reporter lowered or raised; inactive = not a hit
The screen tested about 21,000 reagents; this is an unselected part of those that have a named target and a result. Of all reagents, 503 (2.4%) got an active call. 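Raw plate light values, not normalised; calls rest on replicate z-scores that were not deposited; hits include reporter decreases as well as increases.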 Reagent sequences are not shown. Not given: the amount of reagent, the time to read-out.

The first 3 records, to show the layout:
gene	amplicon	firefly Hh reporter signal, replicate 1	firefly Hh reporter signal, replicate 2	firefly Hh reporter signal, replicate 3	Renilla reference signal, replicate 1	Renilla reference signal, replicate 2	Outcome
CG9825	DRSC04569	82467	54363		2204	4235	inactive
CG14647	DRSC12233	1.56e5	1.01e5		6011	4592	inactive
CG11263	DRSC09832	27459	52177	49180	5718	3065	inactive

The listing, from the first entry:
gene	amplicon	firefly Hh reporter signal, replicate 1	firefly Hh reporter signal, replicate 2	firefly Hh reporter signal, replicate 3	Renilla reference signal, replicate 1	Renilla reference signal, replicate 2	Outcome
CG9825	DRSC04569	82467	54363		2204	4235	inactive
CG14647	DRSC12233	1.56e5	1.01e5		6011	4592	inactive
CG11263	DRSC09832	27459	52177	49180	5718	3065	inactive
Bub3	DRSC14168	86813	67138		2454	2249	inactive
hoe2	DRSC00459	1.17e5	52752		2998	5146	inactive
S2P	DRSC07311	62352	63340		1735	4103	inactive
Nost	DRSC18037	64306	2.90e5		2269	10341	inactive
Nost	DRSC18338	91467	2.21e5		4033	9147	inactive
Drs	DRSC08657	1.03e5	61392		3386	4613	inactive
Inx3	DRSC14857	1.08e5	1.34e5		1387	3261	inactive
Act57B	DRSC04042	74934	28906		2813	1253	inactive
Tom	DRSC11306	85840	76666		3696	2699	inactive
CrebA	DRSC11122	1.08e5	62328		3778	2531	inactive
Fbxl7	DRSC15553	1.17e5	1.11e5		3194	3249	inactive
Alr	DRSC19469	71381	2.88e5		902	11749	inactive
Rnb	DRSC16325	80697	44443		2308	1667	inactive
eIF3l	DRSC10530	41940	49696	77154	3658	4344	inactive
CG14247	DRSC14742	1.26e5	1.11e5		4560	3776	inactive
CG11360	DRSC17124	4.99e5	1.95e5		26149	4899	inactive
CG11360	DRSC17134	78008	1.72e5		1896	6925	inactive
Aprt	DRSC08139	87824	27399		2700	2538	inactive
pie	DRSC03590	50608	57639		2667	2156	inactive
CG2983	DRSC00558	1.69e5	1.13e5		3952	3229	inactive
CG1943	DRSC12576	1.07e5	1.01e5		4091	3148	inactive
Sf3b1	DRSC00535	45056	34556		1453	2208	active
nkd	DRSC11376	1.12e5	1.12e5		3110	3367	inactive
CG5823	DRSC15881	1.04e5	97731		4380	4230	inactive
whe	DRSC20537	86537	2.18e5		1232	8631	inactive
Tret1-1	DRSC07046	83932	47328		1908	3808	inactive
Tret1-1	DRSC07048	61899	40865		1648	3568	inactive
elav	DRSC18772	1.48e5	1.07e5		2881	3381	inactive
witty	DRSC02378	1.94e5	1.29e5		4771	9196	inactive
CG13310	DRSC09981	37563	57335		1256	4208	inactive
Fim	DRSC20243	77670	1.19e5		2006	3108	inactive
CG15861	DRSC04274	85045	40797		1956	3652	inactive
Pp2A-29B	DRSC03400	1.68e5	90730		4108	7492	inactive
cher	DRSC16924	1.18e5	98499		5033	4203	inactive
exu	DRSC07615	69420	64982		3177	2624	inactive
Mipp1	DRSC11223	86023	68180		3016	2436	inactive
